Consider 2 molecules from patent US20260274807A1 (University of Health Sciences and Pharmacy in St. Louis, priority 2023, published 2026).

The chains behind the UniProt entries cited, without tags or fusion partners.
UniProt P11474, whole entry: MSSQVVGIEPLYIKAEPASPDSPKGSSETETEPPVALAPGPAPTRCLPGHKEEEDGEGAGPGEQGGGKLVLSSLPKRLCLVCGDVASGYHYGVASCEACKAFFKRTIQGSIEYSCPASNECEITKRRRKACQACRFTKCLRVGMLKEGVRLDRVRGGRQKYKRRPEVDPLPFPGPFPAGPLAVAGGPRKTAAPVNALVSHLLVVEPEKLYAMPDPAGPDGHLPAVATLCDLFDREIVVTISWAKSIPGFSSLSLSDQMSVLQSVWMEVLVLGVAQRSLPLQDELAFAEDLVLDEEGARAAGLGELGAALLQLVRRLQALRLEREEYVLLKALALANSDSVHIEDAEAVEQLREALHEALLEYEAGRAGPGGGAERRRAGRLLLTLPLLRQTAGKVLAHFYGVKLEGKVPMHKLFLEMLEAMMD
UniProt P62508, whole entry: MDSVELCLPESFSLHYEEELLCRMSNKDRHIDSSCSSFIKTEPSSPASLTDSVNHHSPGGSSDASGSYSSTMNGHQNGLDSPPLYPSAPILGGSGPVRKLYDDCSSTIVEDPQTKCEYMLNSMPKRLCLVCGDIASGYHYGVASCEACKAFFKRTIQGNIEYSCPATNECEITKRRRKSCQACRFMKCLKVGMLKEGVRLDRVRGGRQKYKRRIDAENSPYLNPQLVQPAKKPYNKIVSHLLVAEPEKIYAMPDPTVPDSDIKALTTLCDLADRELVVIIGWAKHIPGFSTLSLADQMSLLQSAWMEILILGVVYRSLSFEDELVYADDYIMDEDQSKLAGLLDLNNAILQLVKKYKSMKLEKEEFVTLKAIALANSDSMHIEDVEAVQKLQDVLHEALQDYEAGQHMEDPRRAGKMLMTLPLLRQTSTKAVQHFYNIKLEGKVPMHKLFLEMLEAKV

The target of test [1] is ERRα (Homo sapiens, UniProt P11474). Put plainly: ERRE luciferase reporter assay in HEK293 cells transfected with pcDNA3.1 ERRα. The following applies: read-out: EC50 (ERRα) μM; HEK293 cells transfected with ERRE reporter construct and pcDNA3.1 ERRα; compound for 24 hours; luciferase activity. (In general: In a reporter assay the amount or activity of a reporter protein is the signal.)

Test [2] has as its target ERRγ (Homo sapiens, UniProt P62508). Put plainly: ERRE luciferase reporter assay in HEK293 cells transfected with pcDNA3.1 ERRγ. Particulars: read-out: EC50 (ERRγ) μM; HEK293 cells transfected with ERRE reporter construct and pcDNA3.1 ERRγ; compound for 24 hours; luciferase activity.

Structures are written as SMILES. Structures were worked out from names or drawings and are uncertain.

For orientation: EC50 means the concentration that produces a half-maximal response. Turning to `COC(=O)c1ccc(-c2nnc(-c3ccc(C(F)(F)F)cc3)s2)cc1`, the EC50 in test [1] and in test [2] was 1 to 5 µM throughout.

Regarding `FC(F)(F)c1ccc(-c2nnc(-c3nccs3)s2)cc1`, the EC50 in test [1] and in test [2] was 1 to 5 µM in each case.
